Series [1] deals with PgMYB15 (Picea glauca). The series is described as follows: EMSA. The conditions noted are these: 20 mM Tris pH 8.0, 10 mM NaCl, 2 mM EDTA, 2 mM DTT, 10% glycerol, 100 ng poly(dI-dC), 375 ng protein, 0.2 ng probe in 20 ul, room temperature 30 min, recombinant protein, label: 32P end label (unlabelled as competitor). For orientation: A gel shift assay detects complexes by their altered migration in electrophoresis.

Series [2] has as its system PgMYB8 (Picea glauca). Nature of the series: EMSA. The conditions noted are these: 20 mM Tris pH 8.0, 10 mM NaCl, 2 mM EDTA, 2 mM DTT, 10% glycerol, 100 ng poly(dI-dC), 375 ng protein, 0.2 ng probe in 20 ul, room temperature 30 min, recombinant protein, label: 32P end label (unlabelled as competitor).
The test system of series [3] is PgMYB8 (Picea glauca). Nature of the series: competition with a labelled probe. The conditions noted are these: 20 mM Tris pH 8.0, 10 mM NaCl, 2 mM EDTA, 2 mM DTT, 10% glycerol, 100 ng poly(dI-dC), 375 ng protein, 0.2 ng probe in 20 ul, room temperature 30 min, recombinant protein, label: unlabelled competitor.
For series [4], the system named is PgMYB15 (Picea glauca). The series is described as follows: competition with a labelled probe. The conditions noted are these: 20 mM Tris pH 8.0, 10 mM NaCl, 2 mM EDTA, 2 mM DTT, 10% glycerol, 100 ng poly(dI-dC), 375 ng protein, 0.2 ng probe in 20 ul, room temperature 30 min, recombinant protein, label: unlabelled competitor.

Construct, isoform or probe ends are uncertain for at least one entry. For part of these data: No signal at the amounts used counts as a negative. For part of these data: At least one verdict rests on a figure or table, not on a statement of the authors. For part of these data: Weaker means in comparison with the reference protein, sequence or condition of that experiment.

Consider “GAGTCGGTCCTCACCAACTTCTTCCACTTT (double strand) [PgDHS2 AC-II]”, for which the binding result in the series on PgMYB15 (Picea glauca) [1] was “binds more weakly”; with PgMYB8 (Picea glauca) [2], “binds”.

“GGTCCCGTGGCCCATCTAGCTGGTGATGTG (double strand) [Pg4CL mAC-II]”: in the series on PgMYB8 (Picea glauca) [3] (vs labelled Pg4CL AC-II), the binding result is on record as “no binding”.

On to “AACTCGCCGTCTACCTACCCACTCCCGGCT (double strand) [Pg4CL AC-I]”, for which the binding result is recorded as “binds” in the series on PgMYB15 (Picea glauca) [1] (much weaker than PgMYB8 in protein-protein competition for the probe) and “binds” in the series on PgMYB8 (Picea glauca) [2] (outcompetes PgMYB15 at ratio 0.7, not displaced by 60-fold PgMYB15). With “GTTGTTGGAGCCCATGCTATCCAATAGATT (double strand) [PgDHS2 mAC-I]”, the binding result in the series with PgMYB15 (Picea glauca) [4] (vs labelled PgDHS2 AC-I) and in the series with PgMYB8 (Picea glauca) [3] (vs labelled PgDHS2 AC-I) was “no binding” throughout. Regarding “GGTCCCGTGGCCACCAACTCTGGTGATGTG (double strand) [Pg4CL AC-II]”, the binding result is “no binding” with PgMYB15 (Picea glauca) [1] and “binds” in the series with PgMYB8 (Picea glauca) [2]. Consider “AACTCGCCGTCTCATGCTACACTCCCGGCT (double strand) [Pg4CL mAC-I]”, for which the binding result in the series with PgMYB15 (Picea glauca) [4] (vs labelled Pg4CL AC-I) and with PgMYB8 (Picea glauca) [3] (vs labelled Pg4CL AC-I) was “no binding” in each case. With “GTTGTTGGAGCCACCTACCTCCAATAGATT (double strand) [PgDHS2 AC-I]”, the binding result with PgMYB15 (Picea glauca) [1] and in the series with PgMYB8 (Picea glauca) [2] was “binds” throughout. Turning to “GAGTCGGTCCTCCATCTAGTCTTCCACTTT (double strand) [PgDHS2 mAC-II]”, the binding result in the series with PgMYB15 (Picea glauca) [4] (vs labelled PgDHS2 AC-II) and in the series with PgMYB8 (Picea glauca) [3] (vs labelled PgDHS2 AC-II) was “no binding” in each case.

For the origin of these results see PMC3904711.
